Cell number change and AC50 data for 34 compounds are collected here from PubChem BioAssay AID2685 (National Center for Advancing Translational Sciences (NCATS), 2010).

Molecules are shown by their SMILES. The list shows a part of the results. Shown are side measurements of this screen, not its main read-out; they come without a call. The list favours compounds with an active or inconclusive main result. Words in brackets tell the shape of the fitted curve; partial curves, single points and poor fits give uncertain potencies.

The AC50 is the concentration at which the activity in the assay is half-maximal. Low values mean activity at low concentration, high ones activity only at high concentration.

A short description of the experiment: qHTS Assay for Lipid Storage Modulators in Drosophila S3 Cells.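 As to Cell number change: cells counted by Cell Tracker Red CMTPX staining in the red channel.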 Conditions: BODIPY lipid droplet fluorescence, 18-24 h; for cell number change: measured here: cell count max response, cells fed with added oleic acid. The procedure, abridged: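 Drosophila S3 cells got compounds at several concentrations plus oleic acid (400 uM solution). Laser-scanning cytometry with 488 nm excitation read lipid droplets at 500-530 nm and cells at 575-640 nm. Percent activity was relative to 20 uM Triacsin C.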
(Quantitative high-throughput screening tests each substance at several concentrations.)

Where [1] appears, read: measured here: cell number channel AC50, cells fed with added oleic acid.
Where [2] appears, read: measured here: lipid fluorescence (Fed channel) AC50, cells fed with added oleic acid.

In the case of `Brc1ccc(-c2csc(/N=C/N3CCCC3)n2)cc1`, the cell number change was determined as 24.6%. Under setting [1], the AC50 was 2.59 µM [rising, full curve, poor fit].

Consider `CCOc1ccccc1N1CCN(C(=O)NCc2ccc(Cl)cc2)CC1`, for which the cell number change came out at 17.6%. In addition, under setting [2], the AC50 was 0.58 µM [rising, single point].

In the case of `O=C(COC(=O)c1ccccc1[N+](=O)[O-])Nc1cc(S(=O)(=O)N2CCOCC2)ccc1N1CCCC1`, under setting [1], the AC50 was 5.17 µM [rising, single point].

As for `COc1ccc(NC(=O)c2cccc3c2C(=O)c2ccc(-c4cnc(OC)nc4)cc2S3(=O)=O)cc1`, the cell number change is -15.6%.

Turning to `O=C(CN(Cc1ccccc1)S(=O)(=O)c1ccc(F)cc1)NCc1ccncc1`, the cell number change was -11.3%.

With `COc1ccc(-c2csc(N(CC3CCCO3)C(=O)c3cccs3)n2)cc1` (centres undefined), the cell number change amounted to 19.4%.

As to `O=C(Cn1nnc(-c2ccccc2NC(=O)c2ccccc2)n1)Nc1ccc2c(c1)OCCO2`, the cell number change was determined as 45%. The AC50 under setting [1] is 29.1 µM [rising, single point]. In addition, the AC50 under setting [2] is 14.6 µM [rising, partial curve].

`CCOc1ccc(Nc2cc(C)nc(-n3nc(C)cc3C)n2)cc1`: the cell number change is -15.1%. Moreover, the AC50 under setting [2] is 5.8 µM [rising, partial curve].

For `O=C(CCN1C(=O)/C(=C/c2ccccc2)SC1=S)NCCc1ccc(O)cc1`, the cell number change was -18.9%. Also, the AC50 under setting [2] is 29.1 µM [falling, single point].

As for `Cc1ccccc1-n1c(=O)cc(N2CC(C)OC(C)C2)[nH]c1=O` (centres undefined), the cell number change was 41.1%. Besides, the AC50 under setting [2] was 0.461 µM [rising, full curve, poor fit].

As for `NC(=O)c1ccc(C(F)(F)F)n(Cc2ccccc2Cl)c1=O`, the cell number change is -56.5%. Further, the AC50 under setting [1] is 32.6 µM [falling, single point]. In addition, the AC50 under setting [2] is 29.1 µM [falling, single point].

For the compound `CCOc1ccccc1N1CCN(C(=O)c2cc(S(=O)(=O)N3CCCCC3)ccc2C)CC1`, the cell number change amounted to 20.6%. The AC50 under setting [2] was 3.66 µM [falling, full curve].

As for `COc1ccc(S(=O)(=O)N(C(C)=O)c2ccc(OC(C)=O)c3ccccc23)cc1[N+](=O)[O-]`, the cell number change was -13.7%. Further, the AC50 under setting [2] was 16.4 µM [falling, single point].

Turning to `Cc1ccc(C)c(N2CCN(C(=O)c3ccc4nc(N5CCOCC5)sc4c3)CC2)c1`, the cell number change is 3.77%. In addition, the AC50 under setting [1] is 2.06 µM [rising, partial curve, poor fit]. Moreover, under setting [2], the AC50 is 0.411 µM [rising, partial curve, poor fit].

On to `COc1ccc(NC(=O)C2CC(=O)N(C)C(=Nc3ccc4c(c3)OCO4)S2)cc1` (centres undefined), for which the cell number change was -17.3%.

For `COc1ccc(N(CC(=O)N/N=C/c2cccnc2)S(=O)(=O)c2ccccc2)c(OC)c1`, the cell number change was -48%. Further, under setting [1], the AC50 was 29.1 µM [falling, single point].

For the compound `O=C(CCc1ccccc1)NCc1ccccn1`, the cell number change is 56.3%. For the same compound, under setting [1], the AC50 was 18.4 µM [rising, partial curve, poor fit]. Moreover, the AC50 under setting [2] is 0.411 µM [rising, partial curve, poor fit].

`O=C(O)CCSc1nnc(CNc2ccc(Cl)cc2)n1Cc1ccccc1`: the cell number change was -8.88%. For the same compound, the AC50 under setting [2] was 18.4 µM [falling, partial curve, poor fit].

In the case of `O=C(CCCN1C(=O)c2ccccc2C1=O)Nc1nncs1`, the cell number change is -23.9%. Moreover, the AC50 under setting [1] was 3.66 µM [falling, single point]. In addition, the AC50 under setting [2] is 0.731 µM [falling, full curve].

Consider `CN(CC(=O)Nc1ccc(F)cc1)C(=O)CN1C(=O)c2ccccc2C1=O`, for which the cell number change was -31.1%. Also, the AC50 under setting [1] is 6.51 µM [falling, partial curve, poor fit]. Further, the AC50 under setting [2] was 3.66 µM [falling, full curve, poor fit].

For the compound `Cc1ccc2c(c1)[C@H]1[C@H](CO2)[C@H](c2ccccc2)[C@]2(C)C(=O)Nc3cc(Cl)ccc3C(=O)N12`, the AC50 under setting [2] was 0.731 µM [rising, full curve, poor fit].

Take `O=C(CCCN1C(=O)/C(=C\c2ccccc2)SC1=S)Nc1ccc(C(=O)O)cc1`: the cell number change is -26.7%. Under setting [2], the AC50 was 29.1 µM [falling, single point].

For `NS(=O)(=O)c1ccc(CCNC(=O)c2cc(=O)[nH]c3ccccc23)cc1`, the cell number change is 32.6%.

Take `N#Cc1ccc(Nc2nc(-c3ccc(O)cc3O)cs2)cc1C(F)(F)F`: the cell number change is -75.6%. For the same compound, the AC50 under setting [1] is 18.4 µM [falling, single point]. Further, the AC50 under setting [2] was 1.16 µM [rising, partial curve].

Take `O=C(CCSc1nnc(-c2ccco2)o1)Nc1ccccc1`: the cell number change was 64.3%. Moreover, the AC50 under setting [1] is 18.4 µM [rising, single point]. In addition, the AC50 under setting [2] is 4.11 µM [falling, single point].

For the compound `O=c1[nH]nc(SCc2cc(Cl)ccc2Cl)c(=O)[nH]1`, the cell number change was determined as 17%. The AC50 under setting [2] is 29.1 µM [rising, single point].

For `CCN(CC)CCOC(=O)c1ccc(NC(=O)CCCN2C(=O)S/C(=C/c3ccc(OC)cc3)C2=S)cc1`, the cell number change is -42.1%. Also, the AC50 under setting [1] is 7.31 µM [falling, partial curve, poor fit]. For the same compound, the AC50 under setting [2] is 29.1 µM [falling, single point].

For the compound `CC1CC(C)CN(C(=O)COC(=O)c2ccc3ccccc3n2)C1` (centres undefined), the cell number change is -48.3%. Further, the AC50 under setting [1] was 29.1 µM [falling, single point].

Take `Cc1ccnc2c1ccc1ccccc12`: the cell number change turned out to be 8.11%. The AC50 under setting [1] was 0.461 µM [rising, full curve, poor fit]. Also, the AC50 under setting [2] was 29.1 µM [falling, single point].

In the case of `CCOC(=O)CSc1ncc(-c2ccccc2)cn1`, the cell number change was 13.5%. The AC50 under setting [2] was 3.66 µM [falling, partial curve].

Turning to `COc1ccc(NC(=S)N(CCc2ccc(OC)c(OC)c2)Cc2ccccn2)cc1`, the cell number change is 34.6%. For the same compound, under setting [1], the AC50 is 0.517 µM [rising, full curve]. Moreover, under setting [2], the AC50 was 0.184 µM [rising, full curve].

Regarding `Cc1ccccc1CC1CCN(CCCNC(=O)Nc2ccccc2)CC1`, the cell number change was determined as 23.6%. Moreover, the AC50 under setting [2] was 0.58 µM [rising, full curve, poor fit].

As for `Cc1ccc(C(O)(C(=O)NNc2ccc3ccccc3n2)c2ccc(C)cc2)cc1`, the cell number change was -33.3%. Moreover, under setting [1], the AC50 is 29.1 µM [falling, single point]. The AC50 under setting [2] is 10.3 µM [falling, single point].

For `O=C(O)c1ccccc1N=N/C(=N/Nc1cc(S(=O)(=O)O)ccc1O)c1ccccc1`, the cell number change came to 9.03%. For the same compound, the AC50 under setting [1] was 0.00461 µM [falling, full curve, poor fit]. Moreover, the AC50 under setting [2] is 29.1 µM [falling, single point].
